Assay results from the supplement of paper PMC12823440, “Inhibitors supercharge kinase turnover through native proteolytic circuits” (Nature, 2025).
Counter-ions that a name gives are not always drawn. The list shows a part of the results. Hit calls seldom repeat between salt and free forms of one compound.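 Kinases were expressed as nanoluciferase fusions in K562 cells and luminescence was read every 4 h between 2 and 18 h as percent of control, DMSO set to 100% and a positive control to 0%. A time point counts as decreased when the signal drops significantly (2 sigma). The hit call is the authors' own, does not follow from the count of time points alone, and its rule is not shown.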

Amino acid sequences for entries named in this document (tags omitted). A change or cut given only in a name is not applied to a line headed by its entry.
UniProt Q8IWU2: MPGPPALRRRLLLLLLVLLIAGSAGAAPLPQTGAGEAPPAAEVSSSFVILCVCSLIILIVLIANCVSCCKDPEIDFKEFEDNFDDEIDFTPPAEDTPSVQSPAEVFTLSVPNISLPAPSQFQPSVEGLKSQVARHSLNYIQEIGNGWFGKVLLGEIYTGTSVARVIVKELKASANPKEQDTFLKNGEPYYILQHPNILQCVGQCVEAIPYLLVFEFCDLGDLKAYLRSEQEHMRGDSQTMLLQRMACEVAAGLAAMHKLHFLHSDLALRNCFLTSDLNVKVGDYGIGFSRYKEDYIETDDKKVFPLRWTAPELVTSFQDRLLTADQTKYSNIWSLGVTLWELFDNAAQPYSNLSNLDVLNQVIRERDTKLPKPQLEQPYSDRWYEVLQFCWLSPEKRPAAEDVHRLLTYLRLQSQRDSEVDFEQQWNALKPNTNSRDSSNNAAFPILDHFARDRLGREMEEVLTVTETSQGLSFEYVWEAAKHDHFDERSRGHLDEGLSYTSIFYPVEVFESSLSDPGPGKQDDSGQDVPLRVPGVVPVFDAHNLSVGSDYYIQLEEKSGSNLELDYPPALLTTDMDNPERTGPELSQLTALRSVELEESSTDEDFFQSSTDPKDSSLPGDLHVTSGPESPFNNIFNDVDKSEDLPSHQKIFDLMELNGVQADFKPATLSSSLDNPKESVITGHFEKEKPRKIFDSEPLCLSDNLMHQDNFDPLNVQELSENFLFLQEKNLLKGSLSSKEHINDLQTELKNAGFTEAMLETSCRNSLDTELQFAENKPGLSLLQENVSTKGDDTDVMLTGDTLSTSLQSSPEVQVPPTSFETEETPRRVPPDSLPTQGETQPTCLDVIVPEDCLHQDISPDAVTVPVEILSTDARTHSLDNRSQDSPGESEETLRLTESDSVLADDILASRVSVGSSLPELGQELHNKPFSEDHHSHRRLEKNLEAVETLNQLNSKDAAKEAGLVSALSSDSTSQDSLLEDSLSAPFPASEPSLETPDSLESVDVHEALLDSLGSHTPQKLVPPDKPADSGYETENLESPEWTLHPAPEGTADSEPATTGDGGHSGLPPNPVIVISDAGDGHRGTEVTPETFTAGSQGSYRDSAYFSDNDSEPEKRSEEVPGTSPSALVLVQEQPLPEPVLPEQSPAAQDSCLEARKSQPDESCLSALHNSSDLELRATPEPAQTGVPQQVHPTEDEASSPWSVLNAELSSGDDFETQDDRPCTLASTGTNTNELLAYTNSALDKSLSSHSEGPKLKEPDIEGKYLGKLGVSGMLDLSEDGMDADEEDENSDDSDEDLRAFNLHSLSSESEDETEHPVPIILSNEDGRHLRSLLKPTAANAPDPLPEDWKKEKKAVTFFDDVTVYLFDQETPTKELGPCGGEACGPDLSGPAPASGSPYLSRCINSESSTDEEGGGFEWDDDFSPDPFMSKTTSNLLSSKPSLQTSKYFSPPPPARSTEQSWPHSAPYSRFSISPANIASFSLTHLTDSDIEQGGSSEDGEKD
UniProt P07948: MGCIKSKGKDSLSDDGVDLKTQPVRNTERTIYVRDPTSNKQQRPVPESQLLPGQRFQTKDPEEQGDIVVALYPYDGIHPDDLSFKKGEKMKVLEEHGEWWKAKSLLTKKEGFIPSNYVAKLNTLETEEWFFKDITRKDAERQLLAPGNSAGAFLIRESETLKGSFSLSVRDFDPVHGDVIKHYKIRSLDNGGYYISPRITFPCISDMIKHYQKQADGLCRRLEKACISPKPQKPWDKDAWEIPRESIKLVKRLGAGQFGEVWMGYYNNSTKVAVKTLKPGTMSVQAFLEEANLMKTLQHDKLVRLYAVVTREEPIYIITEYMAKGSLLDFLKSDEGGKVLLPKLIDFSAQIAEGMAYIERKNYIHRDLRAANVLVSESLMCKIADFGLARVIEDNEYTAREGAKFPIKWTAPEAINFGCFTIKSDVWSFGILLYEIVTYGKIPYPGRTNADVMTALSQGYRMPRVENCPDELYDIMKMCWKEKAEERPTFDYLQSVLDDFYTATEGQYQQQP
UniProt P28482, whole entry: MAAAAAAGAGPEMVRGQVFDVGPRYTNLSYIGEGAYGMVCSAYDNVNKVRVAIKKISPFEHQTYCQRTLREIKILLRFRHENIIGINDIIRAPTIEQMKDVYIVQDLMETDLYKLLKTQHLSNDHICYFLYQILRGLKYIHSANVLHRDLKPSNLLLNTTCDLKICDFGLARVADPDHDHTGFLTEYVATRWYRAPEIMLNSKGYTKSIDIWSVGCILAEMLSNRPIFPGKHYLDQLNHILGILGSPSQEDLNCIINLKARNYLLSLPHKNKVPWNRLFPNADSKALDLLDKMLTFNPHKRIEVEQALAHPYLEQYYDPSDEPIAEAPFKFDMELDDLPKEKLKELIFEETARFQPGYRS
UniProt P31152, whole entry: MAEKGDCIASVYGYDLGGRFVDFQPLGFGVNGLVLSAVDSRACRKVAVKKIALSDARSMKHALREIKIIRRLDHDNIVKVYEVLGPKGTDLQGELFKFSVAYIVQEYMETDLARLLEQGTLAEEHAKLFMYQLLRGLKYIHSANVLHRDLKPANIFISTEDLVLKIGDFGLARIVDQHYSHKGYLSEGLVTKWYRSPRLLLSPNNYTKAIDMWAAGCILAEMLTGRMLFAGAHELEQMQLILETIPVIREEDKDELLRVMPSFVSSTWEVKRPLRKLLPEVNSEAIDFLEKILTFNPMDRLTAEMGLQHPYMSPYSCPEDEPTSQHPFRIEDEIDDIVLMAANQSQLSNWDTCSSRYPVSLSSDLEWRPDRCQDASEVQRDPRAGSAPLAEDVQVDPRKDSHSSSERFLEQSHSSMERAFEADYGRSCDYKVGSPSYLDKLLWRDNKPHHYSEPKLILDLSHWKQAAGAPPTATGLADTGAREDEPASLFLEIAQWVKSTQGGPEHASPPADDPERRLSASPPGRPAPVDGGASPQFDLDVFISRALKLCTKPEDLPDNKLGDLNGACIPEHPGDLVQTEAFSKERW
UniProt Q16288, whole entry, looked up: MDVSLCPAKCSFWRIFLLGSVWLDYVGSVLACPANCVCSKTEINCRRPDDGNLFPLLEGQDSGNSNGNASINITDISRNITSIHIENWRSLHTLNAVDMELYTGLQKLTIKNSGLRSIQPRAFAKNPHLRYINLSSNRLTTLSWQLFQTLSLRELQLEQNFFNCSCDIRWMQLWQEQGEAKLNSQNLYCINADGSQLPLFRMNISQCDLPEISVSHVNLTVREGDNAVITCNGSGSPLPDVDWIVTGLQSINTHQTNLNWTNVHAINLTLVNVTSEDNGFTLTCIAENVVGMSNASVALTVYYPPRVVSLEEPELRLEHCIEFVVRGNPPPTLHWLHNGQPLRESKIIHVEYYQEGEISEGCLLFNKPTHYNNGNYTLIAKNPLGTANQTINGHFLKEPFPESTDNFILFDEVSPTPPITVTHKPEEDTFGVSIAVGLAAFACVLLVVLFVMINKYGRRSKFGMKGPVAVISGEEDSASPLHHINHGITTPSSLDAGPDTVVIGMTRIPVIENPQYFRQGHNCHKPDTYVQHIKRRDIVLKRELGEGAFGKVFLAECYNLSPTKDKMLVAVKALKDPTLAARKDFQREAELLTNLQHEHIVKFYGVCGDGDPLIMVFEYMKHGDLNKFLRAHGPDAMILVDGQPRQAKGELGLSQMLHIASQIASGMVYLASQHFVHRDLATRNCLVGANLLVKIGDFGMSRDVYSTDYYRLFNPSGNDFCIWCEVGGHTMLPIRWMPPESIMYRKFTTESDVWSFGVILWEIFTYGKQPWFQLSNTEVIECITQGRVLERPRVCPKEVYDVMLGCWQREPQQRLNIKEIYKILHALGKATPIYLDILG
UniProt O15530: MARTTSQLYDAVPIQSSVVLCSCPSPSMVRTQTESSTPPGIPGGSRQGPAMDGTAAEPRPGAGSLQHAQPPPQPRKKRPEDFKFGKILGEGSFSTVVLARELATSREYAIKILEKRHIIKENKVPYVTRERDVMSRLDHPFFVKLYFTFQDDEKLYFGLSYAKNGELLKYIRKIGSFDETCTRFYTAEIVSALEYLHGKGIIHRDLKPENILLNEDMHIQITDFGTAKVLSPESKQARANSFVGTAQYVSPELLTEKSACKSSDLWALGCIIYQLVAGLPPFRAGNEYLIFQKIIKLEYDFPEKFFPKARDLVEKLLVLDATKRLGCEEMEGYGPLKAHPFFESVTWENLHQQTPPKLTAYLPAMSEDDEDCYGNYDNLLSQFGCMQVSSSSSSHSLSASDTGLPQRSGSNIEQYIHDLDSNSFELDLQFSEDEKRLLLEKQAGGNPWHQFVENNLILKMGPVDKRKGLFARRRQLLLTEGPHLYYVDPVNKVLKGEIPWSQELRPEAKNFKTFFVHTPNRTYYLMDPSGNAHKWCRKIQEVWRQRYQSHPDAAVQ
UniProt Q9UBF8: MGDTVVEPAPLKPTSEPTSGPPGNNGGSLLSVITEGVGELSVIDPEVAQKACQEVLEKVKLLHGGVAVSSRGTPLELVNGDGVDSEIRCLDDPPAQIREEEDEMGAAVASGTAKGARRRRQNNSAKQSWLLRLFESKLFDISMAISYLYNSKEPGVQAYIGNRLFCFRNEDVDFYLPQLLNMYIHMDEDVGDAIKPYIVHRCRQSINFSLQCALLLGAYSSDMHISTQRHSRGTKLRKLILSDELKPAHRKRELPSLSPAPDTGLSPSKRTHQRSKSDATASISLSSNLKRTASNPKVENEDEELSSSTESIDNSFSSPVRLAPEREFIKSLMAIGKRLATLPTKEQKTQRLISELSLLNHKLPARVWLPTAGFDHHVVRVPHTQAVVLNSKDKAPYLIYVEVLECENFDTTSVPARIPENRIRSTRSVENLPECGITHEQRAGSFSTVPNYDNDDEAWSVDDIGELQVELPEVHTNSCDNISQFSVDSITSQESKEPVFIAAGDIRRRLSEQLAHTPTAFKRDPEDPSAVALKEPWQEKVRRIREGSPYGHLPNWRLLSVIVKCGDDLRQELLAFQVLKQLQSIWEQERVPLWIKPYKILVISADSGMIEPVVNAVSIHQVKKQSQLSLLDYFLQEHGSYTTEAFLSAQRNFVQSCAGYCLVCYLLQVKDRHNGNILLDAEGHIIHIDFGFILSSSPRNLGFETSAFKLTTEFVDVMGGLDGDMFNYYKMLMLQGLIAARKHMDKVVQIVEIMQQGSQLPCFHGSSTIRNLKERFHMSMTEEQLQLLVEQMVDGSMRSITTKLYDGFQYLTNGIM
UniProt P53350, whole entry: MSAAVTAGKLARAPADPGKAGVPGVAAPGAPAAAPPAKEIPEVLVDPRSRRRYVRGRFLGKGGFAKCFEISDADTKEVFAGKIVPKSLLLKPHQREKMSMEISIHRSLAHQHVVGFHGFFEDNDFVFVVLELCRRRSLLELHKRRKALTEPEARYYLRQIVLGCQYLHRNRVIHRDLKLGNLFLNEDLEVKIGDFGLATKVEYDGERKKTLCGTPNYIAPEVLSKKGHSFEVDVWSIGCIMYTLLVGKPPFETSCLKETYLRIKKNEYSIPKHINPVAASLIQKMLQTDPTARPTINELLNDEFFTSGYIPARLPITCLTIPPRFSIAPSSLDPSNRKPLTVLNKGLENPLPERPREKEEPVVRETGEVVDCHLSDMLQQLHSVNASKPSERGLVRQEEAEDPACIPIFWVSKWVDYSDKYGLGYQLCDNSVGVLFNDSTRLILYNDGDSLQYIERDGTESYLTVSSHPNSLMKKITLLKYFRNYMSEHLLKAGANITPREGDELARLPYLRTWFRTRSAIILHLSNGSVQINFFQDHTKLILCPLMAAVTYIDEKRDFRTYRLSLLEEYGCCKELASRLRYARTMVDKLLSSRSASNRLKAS
UniProt Q13131: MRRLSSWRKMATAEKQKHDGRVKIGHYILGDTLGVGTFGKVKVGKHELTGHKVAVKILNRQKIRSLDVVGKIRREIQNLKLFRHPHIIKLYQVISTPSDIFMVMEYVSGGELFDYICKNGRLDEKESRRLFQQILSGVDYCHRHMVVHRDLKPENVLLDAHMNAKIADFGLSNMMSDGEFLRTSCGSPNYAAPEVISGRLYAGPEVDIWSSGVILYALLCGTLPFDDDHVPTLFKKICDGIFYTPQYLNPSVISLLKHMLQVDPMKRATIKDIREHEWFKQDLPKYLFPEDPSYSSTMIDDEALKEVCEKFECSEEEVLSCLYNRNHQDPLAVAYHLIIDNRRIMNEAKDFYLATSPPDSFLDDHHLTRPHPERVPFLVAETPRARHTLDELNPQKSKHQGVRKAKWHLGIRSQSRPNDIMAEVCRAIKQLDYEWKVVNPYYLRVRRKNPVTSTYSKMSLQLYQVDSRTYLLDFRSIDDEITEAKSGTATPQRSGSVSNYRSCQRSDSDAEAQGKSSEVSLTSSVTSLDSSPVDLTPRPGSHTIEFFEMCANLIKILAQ

How the values were obtained:
Experiment in all cases: number of time points (of 5) at which kinase-Nluc abundance scored as decreased, DMSO-normalised (count); higher = more persistent destabilization
Conditions in all cases: K562; 2-18 h
LMTK2 = LMTK2 (UniProt Q8IWU2)
LYN = LYN (UniProt P07948)
MAP2K1 = MAP2K1 (UniProt Q02750)
MAP2K2 = MAP2K2 (UniProt P36507)
MAP4K2 = MAP4K2 (UniProt Q12851)
MAPK1 = MAPK1 (UniProt P28482)
MAPK4 = MAPK4 (UniProt P31152)
MAPKAPK2 = MAPKAPK2 (UniProt P49137)
MKNK1 = MKNK1 (UniProt Q9BUB5)
NTRK2 = NTRK2 (UniProt Q16620)
NTRK3 = NTRK3 (UniProt Q16288)
PAK4 = PAK4 (UniProt O96013)
PBK = PBK (UniProt Q96KB5)
PDGFRB = PDGFRB (UniProt P09619)
PDK1 = PDK1 (UniProt Q15118)
PDPK1 = PDPK1 (UniProt O15530)
PIK4CA = PIK4CA (UniProt P42356)
PIK4CB = PIK4CB (UniProt Q9UBF8)
PLK1 = PLK1 (UniProt P53350)
PRKAA1 = PRKAA1 (UniProt Q13131)

Compound	number of time points (LMTK2)	number of time points (LYN)	number of time points (MAP2K1)	number of time points (MAP2K2)	number of time points (MAP4K2)	number of time points (MAPK1)	number of time points (MAPK4)	number of time points (MAPKAPK2)	number of time points (MKNK1)	number of time points (NTRK2)	number of time points (NTRK3)	number of time points (PAK4)	number of time points (PBK)	number of time points (PDGFRB)	number of time points (PDK1)	number of time points (PDPK1)	number of time points (PIK4CA)	number of time points (PIK4CB)	number of time points (PLK1)	number of time points (PRKAA1)
N#Cc1cccc(-c2c[nH]c3ncnc(N4CCOCC4)c23)c1 (10 µM)	0	0	0	0	0	0	0	0	0	0	0	0	0	0	0	0	0	0	0	0
CC(C)c1cnc(-c2cc(Cl)ccc2F)cc1Nc1ccncc1C(=O)NC(CO)CO (2.5 µM)	0	0	0	0	0	0	0	0	0	0	0	0	0	0	0	0	0	0	0	0
Nc1ncnc2c1ncn2[C@@H]1O[C@H](CO)C[C@H]1O [Cordycepin] (10 µM)	0	0	0	0	0	0	0	0	0	0	0	0	0	0	0	0	0	0	0	0
Cc1cc(Nc2cc(Cl)nc(Oc3ccc([N+](=O)[O-])cc3)n2)n[nH]1 [Autophinib] (2.5 µM)	0	0	0	0	0	0	0	0	0	0	0	0	0	0	0	0	0	0	0	0
O=C(NCCCNC(=O)Nc1cccc(C2=NCCN2)c1)Nc1cccc(C2=NCCN2)c1 [p32 Inhibitor M36] (10 µM)	0	0	0	0	0	0	0	0	0	0	0	0	0	0	0	0	0	0	0	0
C[C@@H](c1ccc2nccn2c1)n1nnc2ncc(-c3cnn(C)c3)nc21 [Savolitinib] (10 µM)	0	0	0	0	0	0	0	0	0	0	0	0	0	0	0	0	0	0	0	0
O=C1c2ccc(Nc3ccc(F)cc3F)cc2CCc2ccc(OC[C@H](O)CO)cc21 [Skepinone-L] (2.5 µM)	0	0	0	0	0	0	0	0	0	0	0	0	0	0	0	0	0	0	0	0
Cc1c(CN2CCN(C(=O)[C@H](C)O)CC2)sc2c(N3CCOCC3)nc(-c3cnc(N)nc3)nc12 [Apitolisib] (10 µM)	0	1	0	0	0	0	0	0	0	0	4	0	0	0	0	2	0	0	0	1
O=C(NC(NC(=S)Nc1ccc(F)c([N+](=O)[O-])c1)C(Cl)(Cl)Cl)C(c1ccccc1)c1ccccc1 (stereo not given) (10 µM)	0	0	0	0	0	0	0	0	0	0	0	0	0	0	0	0	0	0	0	0
COC1(C(=O)N2Cc3nc(Cl)nc(N[C@H](C)c4cc(N)cc(C(F)(F)F)c4)c3C2)CCOCC1 (10 µM)	0	0	0	0	0	0	0	0	0	0	0	0	0	0	0	0	0	0	0	0
Cc1cc(O)c(C(C)C)cc1N=O [Poloxime] (10 µM)	0	0	0	0	0	0	0	0	0	0	0	0	0	3	0	0	0	0	0	0
Cc1ccc2nc(NC(=O)CSc3nc4c(c(=O)n3-c3ccccc3)SCC4)sc2c1 (2 µM)	0	0	0	0	0	0	0	0	0	0	0	0	0	0	0	0	0	0	0	0
Cc1ccc(NC(=S)NNc2c([N+](=O)[O-])cc(C(F)(F)F)cc2[N+](=O)[O-])cc1Cl (10 µM)	0	0	0	0	0	0	0	0	0	0	0	0	0	0	0	0	0	0	0	0
CCc1cc(O)c(F)cc1-c1ccc2c(-c3nc4c([nH]3)CN(C3CCN(C)CC3)CC4)n[nH]c2c1 [JAK-IN-5 (hydrochloride)] (2 µM)	0	0	0	0	0	0	0	0	0	0	0	0	0	0	0	4	0	2	0	1
CC[C@@]1(c2ccccc2)C2=C(CC(C)(C)CC2=O)Nc2[nH]ncc21 (10 µM)	0	0	0	0	0	0	0	0	0	0	0	0	0	0	0	0	0	0	0	0
Cn1cc(-c2ccc(CNc3cc(-c4cnc5cc(OCCCN6CCCC6)ccn45)ncn3)cc2)cn1 (10 µM)	0	0	0	0	0	0	0	0	0	0	0	0	0	0	0	0	0	0	0	0
C#CCN(C)C(=O)CCNc1nc(N2CCN(C(=O)C=C)CC2)c2cc(Cl)c(-c3c(O)cccc3F)c(F)c2n1 [ARS-1323-alkyne] (2.5 µM)	0	0	0	0	0	0	0	0	0	0	0	0	0	0	0	0	0	0	0	0
CC(=O)N1CCN(c2cc(-c3cc(C(F)(F)F)c4c(N)ncnn34)ccc2C#N)C(=O)C1(C)C (10 µM)	0	0	0	0	0	0	0	0	0	0	0	0	0	0	0	0	0	0	0	0
CC(C)NC(=O)N1CC[C@H](NC2=Nc3cc(F)ccc3N(CC(F)F)c3ccc(Cl)cc32)C1 (10 µM)	0	0	0	0	0	0	0	0	0	0	0	0	0	0	0	0	0	0	0	0
CC(C)(NS(=O)(=O)c1ccc2c(Cl)cnc(N=C(N)N)c2c1)C(=O)O (10 µM)	0	0	0	0	0	0	0	0	0	0	0	0	0	0	0	0	0	0	0	0
Cc1ccc(Nc2cc(-c3cccc(N4C(=O)c5ccccc5C4=O)c3)ncn2)cc1NS(C)(=O)=O (10 µM)	1	0	0	0	0	0	0	0	1	0	0	0	0	0	0	0	1	0	0	0
O=C(/C=C/c1ccc(O)c(O)c1)OC1CC(OC(=O)/C=C/c2ccc(O)c(O)c2)(C(=O)O)CC(O)C1O (stereo not given) [1,3-Dicaffeoylquinic acid] (10 µM)	0	0	0	0	0	0	0	0	0	0	0	0	0	0	0	0	0	0	0	0
Cc1cc(Nc2nc(N[C@@H](C)c3ccc(F)cc3)c(C#N)cc2F)n[nH]1 (10 µM)	1	0	0	0	0	0	0	0	0	0	0	0	0	0	0	1	0	0	0	0
Fc1ccc(-c2nc(-c3ccccc3F)[nH]c2-c2ccncc2)cc1 (2.5 µM)	0	0	0	0	0	0	0	0	0	0	0	0	0	0	0	0	0	0	0	0

Arranged by heavy-atom count (smallest number first): some entries from above.
Compound	number of time points (LMTK2)	number of time points (LYN)	number of time points (MAP2K1)	number of time points (MAP2K2)	number of time points (MAP4K2)	number of time points (MAPK1)	number of time points (MAPK4)	number of time points (MAPKAPK2)	number of time points (MKNK1)	number of time points (NTRK2)	number of time points (NTRK3)	number of time points (PAK4)	number of time points (PBK)	number of time points (PDGFRB)	number of time points (PDK1)	number of time points (PDPK1)	number of time points (PIK4CA)	number of time points (PIK4CB)	number of time points (PLK1)	number of time points (PRKAA1)
Cc1cc(Nc2nc(N[C@@H](C)c3ccc(F)cc3)c(C#N)cc2F)n[nH]1 (10 µM)	1	0	0	0	0	0	0	0	0	0	0	0	0	0	0	1	0	0	0	0
O=C1c2ccc(Nc3ccc(F)cc3F)cc2CCc2ccc(OC[C@H](O)CO)cc21 [Skepinone-L] (2.5 µM)	0	0	0	0	0	0	0	0	0	0	0	0	0	0	0	0	0	0	0	0
Cn1cc(-c2ccc(CNc3cc(-c4cnc5cc(OCCCN6CCCC6)ccn45)ncn3)cc2)cn1 (10 µM)	0	0	0	0	0	0	0	0	0	0	0	0	0	0	0	0	0	0	0	0
